No constants are given. Whether binding was seen depends on the method and setting. In cells and extracts the contact can be indirect. Here binding means that the protein was enriched with, or labelled near, the bait; the list need not be complete.
B1: Ras-related protein Rab-23 (protein, UniProt Q9ULC3 1-237)
chain: MLEEDMEVAIKMVVVGNGAVGKSSMIQRYCKGIFTKDYKKTIGVDFLERQIQVNDEDVRLMLWDTAGQEEFDAITKAYYRGAQACVLVFSTTDRESFEAVSSWREKVVAEVGDIPTVLVQNKIDLLDDSCIKNEEAEALAKRLKLRFYRTSVKEDLNVNEVFKYLAEKYLQKLKQQIAEDPELTHSSSNKIGVFNTSGGSHSGQNSGTLNGGDVINLRPNKQRTKKNRNPFSSCSIP
B2: Ras GTPase-activating protein nGAP (protein, UniProt Q9UJF2-2 1-1280)
chain: MELSPSSGGAAEALSWPEMFPALESDSPLPPEDLDAVVPVSGAVAGGMLDRILLESVCQQQSWVRVYDVKGPPTHRLSCGQSPYTETTTWERKYCILTDSQLVLLNKEKEIPVEGGQEQQTDSTKGRCLRRTVSVPSEGQFPEYPPEGATKLEVPAERSPRRRSISGTSTSEKPNSMDTANTSPFKVPGFFSKRLKGSIKRTKSQSKLDRNTSFRLPSLRSTDDRSRGLPKLKESRSHESLLSPCSTVECLDLGRGEPVSVKPLHSSILGQDFCFEVTYLSGSKCFSCNSASERDKWMENLRRTVQPNKDNCRRAENVLRLWIIEAKDLAPKKKYFCELCLDDTLFARTTSKTKADNIFWGEHFEFFSLPPLHSITVHIYKDVEKKKKKDKNNYVGLVNIPTASVTGRQFVEKWYPVSTPTPNKGKTGGPSIRIKSRFQTITILPMEQYKEFAEFVTSNYTMLCSVLEPVISVRNKEELACALVHILQSTGRAKDFLTDLVMSEVDRCGEHDVLIFRENTIATKSIEEYLKLVGQQYLHDALGEFIKALYESDENCEVDPSKCSSSELIDHQSNLKMCCELAFCKIINSYCVFPRELKEVFASWKQQCLNRGKQDISERLISASLFLRFLCPAIMSPSLFNLMQEYPDDRTSRTLTLIAKVIQNLANFAKFGNKEEYMAFMNDFLEHEWGGMKRFLLEISNPDTISNTPGFDGYIDLGRELSVLHSLLWEVVSQLDKATVAKLGPLPRVLADITKSLTNPTPIQQQLRRFTEHNSSPNVSGSLSSGLQKIFEDPTDSDLHKLKSPSQDNTDSYFRGKTLLLVQQASSQSMTYSEKDERESSLPNGRSVSLMDLQDTHAAQVEHASVMLDVPIRLTGSQLSITQVASIKQLRETQSTPQSAPQVRRPLHPALNQPGGLQPLSFQNPVYHLNNPIPAMPKASIDSSLENLSTASSRSQSNSEDFKLSGPSNSSMEDFTKRSTQSEDFSRRHTVPDRHIPLALPRQNSTGQAQIRKVDQGGLGARAKAPPSLPHSASLRSTGSMSVVSAALVAEPVQNGSRSRQQSSSSRESPVPKVRAIQRQQTQQVQSPVDSATMSPVERTAAWVLNNGQYEEDVEETEQNLDEAKHAEKYEQEITKLKERLRVSSRRLEEYERRLLVQEQQMQKLLLEYKARLEDSEERLRRQQEEKDSQMKSIISRLMAVEEELKKDHAEMQAVIDAKQKIIDAQEKRIVSLDSANTRLMSALTQVKERYSMQVRNGISPTNPTKLSITENGEFKNSSC
B3: Prolactin regulatory element-binding protein (protein, UniProt Q9HCU5 1-417)
chain: MGRRRAPELYRAPFPLYALQVDPSTGLLIAAGGGGAAKTGIKNGVHFLQLELINGRLSASLLHSHDTETRATMNLALAGDILAAGQDAHCQLLRFQAHQQQGNKAEKAGSKEQGPRQRKGAAPAEKKCGAETQHEGLELRVENLQAVQTDFSSDPLQKVVCFNHDNTLLATGGTDGYVRVWKVPSLEKVLEFKAHEGEIEDLALGPDGKLVTVGRDLKASVWQKDQLVTQLHWQENGPTFSSTPYRYQACRFGQVPDQPAGLRLFTVQIPHKRLRQPPPCYLTAWDGSNFLPLRTKSCGHEVVSCLDVSESGTFLGLGTVTGSVAIYIAFSLQCLYYVREAHGIVVTDVAFLPEKGRGPELLGSHETALFSVAVDSRCQLHLLPSRRSVPVWLLLLLCVGLIIVTILLLQSAFPGFL
B4: PH and SEC7 domain-containing protein 3 (protein, UniProt Q9NYI0-2 1-1047)
chain: MEGRSAAAETFVWVNNASAHSQSVAKAKYEFLFGRSEGKAPDTSDHGGSTLLPPNVTNEFPEYGTMEEGGEGLRASLEFDGEALPCHPQEQQGVQPLTGCHSGLDSVTEGPKDVREAPSQSHLKEQSLQPIDSLISALKATEARIISGTLQATKVLDQDAVSSFSVQQVEKELDTASRKTQRVNKTLPAGQKNLPEIPLSAEVTTEESFYLSIQKDLTALLTGDTQAEISQIMNNGRKGAVCVQEPSCPLASLGSSAVTCHSAGSVGFLKEQRSALGREHPGGCDRSSSMGRPGRVKHVEFQGVEILWTGGDKRETQHPIDFETSLQRTASPDSKESSKVPRHLISSAGLCNSSSLTENVWDESWKAPSERPGTSSGTFSPVRLDESGEDEVFLQENKQHLEKTPKPERDRERISEQEEHVKGEDEDILGPGYTEDSTDVYSSQFETILDNTSLYYSAESLETLYSEPDSYFSFEMPLTPMIQQRIKEGGQFLERTSGGGHQDILSVSADGGIVMGYSSGVTNGLNDASDSIYTKGTPEIAFWGSNAGVKTTRLEAHSEMGSTEILEKETPENLSNGTSSNVEAAKRLAKRLYQLDRFKRSDVAKHLGKNNEFSKLVAEEYLKFFDFTGMTLDQSLRYFFKAFSLVGETQERERVLIHFSNRYFYCNPDTIASQDGVHCLTCAIMLLNTDLHGHNIGKKMTCQEFIANLQGVNEGVDFSKDLLKALYNSIKNEKLEWAVDDEEKKKSPSESTEEKANGTHPKTISRIGSTTNPFLDIPHDPNAAVYKSGFLARKIHADMDGKKTPRGKRGWKTFYAVLKGTVLYLQKDEYKPEKALSEEDLKNAVSVHHALASKATDYEKKPNVFKLKTADWRVLLFQTQSPEEMQGWINKINCVAAVFSAPPFPAAIGSQKKFSRPLLPATTTKLSQEEQLKSHESKLKQITTELAEHRSYPPDKKVKAKDVDEYKLKDHYLEFEKTRYEMYVSILKEGGKELLSNDESEAAGLKKSHSSPSLNPDTSPITAKVKRNVSERKDHRPETPSIKQKVT
B5: Tyrosine-protein phosphatase non-receptor type 1 (protein, UniProt P18031 1-435)
chain: MEMEKEFEQIDKSGSWAAIYQDIRHEASDFPCRVAKLPKNKNRNRYRDVSPFDHSRIKLHQEDNDYINASLIKMEEAQRSYILTQGPLPNTCGHFWEMVWEQKSRGVVMLNRVMEKGSLKCAQYWPQKEEKEMIFEDTNLKLTLISEDIKSYYTVRQLELENLTTQETREILHFHYTTWPDFGVPESPASFLNFLFKVRESGSLSPEHGPVVVHCSAGIGRSGTFCLADTCLLLMDKRKDPSSVDIKKVLLEMRKFRMGLIQTADQLRFSYLAVIEGAKFIMGDSSVQDQWKELSHEDLEPPPEHIPPPPRPPKRILEPHNGKCREFFPNHQWVKEETQEDKDCPIKEEKGSPLNAAPYGIESMSQDTEVRSRVVGGSLRGAQAASPAKGEPSLPEKDEDHALSYWKPFLVNMCVATVLTAGAYLCYRFLFNSNT
B6: Ankycorbin (protein, UniProt Q9P0K7-2 1-983)
chain: MQPTYLPWLSAKEKKTNEWNKNDDRLLQAVENGDAEKVASLLGKKGASATKHDSEGKTAFHLAAAKGHVECLRVMITHGVDVTAQDTTGHSALHLAAKNSHHECIRKLLQSKCPAESVDSSGKTALHYAAAQGCLQAVQILCEHKSPINLKDLDGNIPLLLAVQNGHSEICHFLLDHGADVNSRNKSGRTALMLACEIGSSNAVEALIKKGADLNLVDSLGYNALHYSKLSENAGIQSLLLSKISQDADLKTPTKPKQHDQVSKISSERSGTPKKRKAPPPPISPTQLSDVSSPRSITSTPLSGKESVFFAEPPFKAEISSIRENKDRLSDSTTGADSLLDISSEADQQDLLSLLQAKVASLTLHNKELQDKLQAKSPKEAEADLSFDSYHSTQTDLGPSLGKPGETSPPDSKSSPSVLIHSLGKSTTDNDVRIQQLQEILQDLQKRLESSEAERKQLQVELQSRRAELVCLNNTEISENSSDLSQKLKETQSKYEEAMKEVLSVQKQMKLGLVSPESMDNYSHFHELRVTEEEINVLKQDLQNALEESERNKEKVRELEEKLVEREKGTVIKPPVEEYEEMKSSYCSVIENMNKEKAFLFEKYQEAQEEIMKLKDTLKSQMTQEASDEAEDMKEAMNRMIDELNKQVSELSQLYKEAQAELEDYRKRKSLEDVTAEYIHKAEHEKLMQLTNVSRAKAEDALSEMKSQYSKVLNELTQLKQLVDAQKENSVSITEHLQVITTLRTAAKEMEEKISNLKEHLASKEVEVAKLEKQLLEEKAAMTDAMVPRSSYEKLQSSLESEVSVLASKLKESVKEKEKVHSEVVQIRSEVSQVKREKENIQTLLKSKEQEVNELLQKFQQAQEELAEMKRYAESSSKLEEDKDKKINEMSKEVTKLKEALNSLSQLSYSTSSSKRQSQQLEALQQQVKQLQNQLAECKKQHQEVISVYRMHLLYAVQGQMDEDVQKVLKQILTMCKNQSQKK

Sequences of proteins named here, by UniProt entry; tags and fusion partners are left off.
UniProt Q8IWT6: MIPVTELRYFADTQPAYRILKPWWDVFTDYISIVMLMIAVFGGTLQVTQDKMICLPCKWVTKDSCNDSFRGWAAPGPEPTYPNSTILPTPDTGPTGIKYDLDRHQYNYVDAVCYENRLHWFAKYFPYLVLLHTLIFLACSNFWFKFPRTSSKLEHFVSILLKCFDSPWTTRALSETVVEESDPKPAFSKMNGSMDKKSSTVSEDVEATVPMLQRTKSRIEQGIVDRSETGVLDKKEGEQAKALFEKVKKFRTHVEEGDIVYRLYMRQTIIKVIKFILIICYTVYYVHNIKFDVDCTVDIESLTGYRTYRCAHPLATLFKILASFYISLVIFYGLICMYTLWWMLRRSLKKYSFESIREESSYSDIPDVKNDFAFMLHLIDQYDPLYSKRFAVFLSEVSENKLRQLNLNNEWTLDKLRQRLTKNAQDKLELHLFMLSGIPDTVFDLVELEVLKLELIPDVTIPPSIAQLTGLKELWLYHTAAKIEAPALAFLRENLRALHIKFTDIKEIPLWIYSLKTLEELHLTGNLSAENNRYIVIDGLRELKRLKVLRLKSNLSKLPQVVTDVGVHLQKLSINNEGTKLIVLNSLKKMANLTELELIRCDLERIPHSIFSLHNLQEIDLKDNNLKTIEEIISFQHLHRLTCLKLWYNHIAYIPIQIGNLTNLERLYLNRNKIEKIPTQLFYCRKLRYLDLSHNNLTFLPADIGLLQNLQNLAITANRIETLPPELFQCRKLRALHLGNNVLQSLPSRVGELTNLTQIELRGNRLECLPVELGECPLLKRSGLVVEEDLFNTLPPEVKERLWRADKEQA

The binders below were run against LRRC8A-BirA*-HA fusion protein (human) (UniProt Q8IWT6) (assay: proximity labelling; BioID: HEK293 cells stably expressing LRRC8A-BirA*-HA (two clones), 50 uM biotin 24 h, RIPA lysis, streptavidin bead pull-down of biotinylated proteins, TMT labelling and LC-MS/MS; hits: FDR <= 0.05 and fold change >= 2 against the no-biotin control).

binding	Binder
binds	B1
binds	B2
binds	B3
binds	B4
binds	B5
binds	B6
